Experiment [1] concerns the target T1, FLD tagged at the carboxyl terminus with FLAG-TAP epitopes (FLD-FLAG-TAP) (Arabidopsis thaliana) (UniProt Q9CAE3).
T1 sequence: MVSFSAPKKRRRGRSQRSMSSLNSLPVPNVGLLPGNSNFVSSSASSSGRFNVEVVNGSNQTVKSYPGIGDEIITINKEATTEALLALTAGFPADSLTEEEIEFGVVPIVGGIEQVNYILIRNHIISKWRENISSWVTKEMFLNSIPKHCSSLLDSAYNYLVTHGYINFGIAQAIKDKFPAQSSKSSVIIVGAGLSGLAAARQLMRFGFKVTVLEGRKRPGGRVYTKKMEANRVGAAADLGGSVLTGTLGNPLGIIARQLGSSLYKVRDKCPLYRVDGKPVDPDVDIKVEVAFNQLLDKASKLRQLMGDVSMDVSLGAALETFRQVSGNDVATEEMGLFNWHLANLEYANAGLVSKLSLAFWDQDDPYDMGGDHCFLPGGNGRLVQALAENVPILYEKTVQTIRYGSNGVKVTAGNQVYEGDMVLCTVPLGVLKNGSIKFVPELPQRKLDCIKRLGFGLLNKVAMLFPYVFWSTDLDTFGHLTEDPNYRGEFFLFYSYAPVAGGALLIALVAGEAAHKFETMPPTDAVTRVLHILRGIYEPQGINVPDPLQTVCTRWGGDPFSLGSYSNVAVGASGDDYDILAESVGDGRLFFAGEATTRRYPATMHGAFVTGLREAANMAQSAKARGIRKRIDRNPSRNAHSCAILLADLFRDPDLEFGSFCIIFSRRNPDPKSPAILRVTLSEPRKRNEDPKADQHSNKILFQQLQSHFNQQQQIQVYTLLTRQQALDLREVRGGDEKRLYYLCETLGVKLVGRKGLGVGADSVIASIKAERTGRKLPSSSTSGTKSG
In words: affinity purification with mass spectrometry; FLD-FLAG-TAP immunopurified from a transgenic Arabidopsis line, no cross-linking; nontransgenic Col-0 as negative control.

Experiment [2] has as its target T2, GFP-LD (Arabidopsis thaliana) (UniProt Q38796).
T2 sequence: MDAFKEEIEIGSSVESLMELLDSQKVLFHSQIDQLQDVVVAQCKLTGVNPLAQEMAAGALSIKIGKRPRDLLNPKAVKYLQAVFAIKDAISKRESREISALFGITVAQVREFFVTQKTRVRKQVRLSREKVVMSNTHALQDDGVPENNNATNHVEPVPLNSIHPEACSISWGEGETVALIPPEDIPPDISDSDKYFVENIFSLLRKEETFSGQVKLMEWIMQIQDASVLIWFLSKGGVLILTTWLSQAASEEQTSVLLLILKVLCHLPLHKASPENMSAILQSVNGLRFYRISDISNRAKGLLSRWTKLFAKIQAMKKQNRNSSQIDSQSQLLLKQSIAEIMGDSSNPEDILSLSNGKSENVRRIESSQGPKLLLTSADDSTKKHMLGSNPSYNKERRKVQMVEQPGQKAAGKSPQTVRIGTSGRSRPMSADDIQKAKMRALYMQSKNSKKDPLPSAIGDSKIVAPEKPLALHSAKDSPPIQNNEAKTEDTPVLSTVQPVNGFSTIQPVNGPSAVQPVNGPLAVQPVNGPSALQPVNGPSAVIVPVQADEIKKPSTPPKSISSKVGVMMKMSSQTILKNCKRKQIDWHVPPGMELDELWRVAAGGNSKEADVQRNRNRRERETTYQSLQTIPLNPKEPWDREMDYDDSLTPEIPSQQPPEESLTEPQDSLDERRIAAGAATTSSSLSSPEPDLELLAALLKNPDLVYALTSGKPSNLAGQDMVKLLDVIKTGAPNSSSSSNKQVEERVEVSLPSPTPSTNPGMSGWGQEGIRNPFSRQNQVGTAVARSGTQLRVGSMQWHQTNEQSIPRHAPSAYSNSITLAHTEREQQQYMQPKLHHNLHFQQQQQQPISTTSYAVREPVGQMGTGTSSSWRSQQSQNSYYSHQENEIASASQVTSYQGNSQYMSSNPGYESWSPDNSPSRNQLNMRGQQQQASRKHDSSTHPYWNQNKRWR
As to the kind of experiment: affinity purification with mass spectrometry; GFP purifications of GFP-LD and SDG26-GFP from transgenic Arabidopsis plants (GFP-Trap Magnetic Agarose), no cross-linking; Col-0 and a line expressing GFP alone as negative controls.

Experiment [3] concerns the target T3, SDG26-GFP (Arabidopsis thaliana) (UniProt Q84WW6).
T3 sequence: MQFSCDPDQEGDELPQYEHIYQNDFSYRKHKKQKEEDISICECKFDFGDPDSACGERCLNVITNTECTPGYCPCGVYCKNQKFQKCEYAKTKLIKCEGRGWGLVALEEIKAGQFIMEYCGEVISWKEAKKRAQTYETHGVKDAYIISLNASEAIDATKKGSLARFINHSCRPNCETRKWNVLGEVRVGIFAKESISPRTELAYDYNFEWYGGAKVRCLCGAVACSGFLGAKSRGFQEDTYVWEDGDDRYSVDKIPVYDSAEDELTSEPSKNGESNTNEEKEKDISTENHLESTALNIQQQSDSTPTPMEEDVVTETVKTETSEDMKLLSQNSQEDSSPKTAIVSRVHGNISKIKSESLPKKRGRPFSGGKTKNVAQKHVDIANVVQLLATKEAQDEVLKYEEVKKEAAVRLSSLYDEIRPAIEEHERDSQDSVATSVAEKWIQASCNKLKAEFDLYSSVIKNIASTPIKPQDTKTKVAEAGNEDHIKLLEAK
The experiment is described as above.

The target of experiment [4] is T3, SDG26-GFP (Arabidopsis thaliana). As to the kind of experiment: affinity purification with mass spectrometry; cross-linked nuclear immunoprecipitation and mass spectrometry (CLNIP-MS) of SDG26 and of LD from transgenic Arabidopsis plants; Col-0 and a line expressing GFP alone as negative controls.
For experiment [5], the target named is T2, GFP-LD (Arabidopsis thaliana). The experiment is described as above.

No constants are given. Whether binding was seen depends on the method and setting. In cells and extracts the contact can be indirect. These calls come from enrichment with a bait or labelling near it, and not all partners need be listed. For some of these results: No binding means not detected with the bait. Sequences can lack the tags named with a protein.

Consider “SET DOMAIN GROUP 26 (SDG26) (endogenous) (from UniProt Q84WW6 1-492)”, for which the binding result in experiment [1] and in experiment [2] was “binds” each time.

B1: FLD (endogenous) (protein, UniProt Q9CAE3 1-789)
chain: MVSFSAPKKRRRGRSQRSMSSLNSLPVPNVGLLPGNSNFVSSSASSSGRFNVEVVNGSNQTVKSYPGIGDEIITINKEATTEALLALTAGFPADSLTEEEIEFGVVPIVGGIEQVNYILIRNHIISKWRENISSWVTKEMFLNSIPKHCSSLLDSAYNYLVTHGYINFGIAQAIKDKFPAQSSKSSVIIVGAGLSGLAAARQLMRFGFKVTVLEGRKRPGGRVYTKKMEANRVGAAADLGGSVLTGTLGNPLGIIARQLGSSLYKVRDKCPLYRVDGKPVDPDVDIKVEVAFNQLLDKASKLRQLMGDVSMDVSLGAALETFRQVSGNDVATEEMGLFNWHLANLEYANAGLVSKLSLAFWDQDDPYDMGGDHCFLPGGNGRLVQALAENVPILYEKTVQTIRYGSNGVKVTAGNQVYEGDMVLCTVPLGVLKNGSIKFVPELPQRKLDCIKRLGFGLLNKVAMLFPYVFWSTDLDTFGHLTEDPNYRGEFFLFYSYAPVAGGALLIALVAGEAAHKFETMPPTDAVTRVLHILRGIYEPQGINVPDPLQTVCTRWGGDPFSLGSYSNVAVGASGDDYDILAESVGDGRLFFAGEATTRRYPATMHGAFVTGLREAANMAQSAKARGIRKRIDRNPSRNAHSCAILLADLFRDPDLEFGSFCIIFSRRNPDPKSPAILRVTLSEPRKRNEDPKADQHSNKILFQQLQSHFNQQQQIQVYTLLTRQQALDLREVRGGDEKRLYYLCETLGVKLVGRKGLGVGADSVIASIKAERTGRKLPSSSTSGTKSG
Turning to B1, the binding entry in experiment [2], in experiment [3] and in experiment [4] was “binds” throughout.

B2: RRM-containing protein FPA (protein, UniProt Q8LPQ9 1-901)
chain: MALSMKPFRADDSGFQSNNLWVGSLTPETTESDLTELFGRYGDIDRITVYSSRGFAFIYYRHVEEAVAAKEALQGANLNGSQIKIEYARPAKPCKSLWVGGIGPNVSKDDLEEEFSKFGKIEDFRFLRERKTAFIDYYEMDDALQAKSMNGKPMGGSFLRVDFLRSQAPKKEQWAGSYDNRNGNMNHKPQYPHSYEDFKGDVQPSKVLWIGFPPTATQCNDEQILHNAMILFGEIERVKSYPSRNFALVEFRSAEEARQCKEGLQGRLFNNPRIKIMYSNDELPPEQDDTSFYSGMKRSRTDMFNNDPSFVSSPHSTGIPGSMRPLRGTNERSYNGAEYNDVVGKEPNWRRPSANGTGILPSPTGPGILPSPAQGTRRPMRSNPDSWEGYDPAQLVRESKRTRRDGSVDGFTPMGVDERSFGRGSVAARPIRGPPDSDHIWRGMIAKGGTPVCCARCVPMGKGIETKLPEVVNCSARTDLNMLAKHYAVAIGCEIVFFVPDREEDFASYTEFLRYLSSKDRAGVAKLDDGTTLFLVPPSDFLTDVLQVTRQERLYGVVLKLPPPAVPVTASYRQESQSNPLHYMDQARDSPANASHSLYPPRENYIRGAPEHLTAASKPSVSEPLRIPNNAAPQAGVSLTPELLATLASILPATSQPAAPESHQPMSGPSTVVSTAHQSNGLYNGEAPSQAWKRGPQTVHDASNQSFQQYGNQYTPAGQLPPPPSRYPPASNNPNYTSGMVHGNMQYQSQSVNMPQLSPLPNMPHNNYSMYTQGSSNHPVSQPMVQQYQPEASMPNQNYGPIPSYQQANFHGVTTNQAQNLNPSQFQAAMQPPADKANLEPQNQALRLQPMISGDGQGTTDGEVDKNQRYQSTLQFAANLLLQIQQKQQQQSSGTPAGQGP
As to B2, the binding entry in experiment [5] and in experiment [4] was “binds” throughout.

B3: FY (WDR33) (protein, UniProt Q6NLV4 1-647)
chain: MYAGGDMHRGSQMPQPPMMRQSSASSTNINPDYHHPSGPFDPNVDSFGAKRMRKHTQRRAVDYTSTVVRYIQARTWQRDSRDRTTLQPTPAAAVDMLPTVAYSDNPSTSFAAKFVHASLNKNRCSINRVLWTPSGRRLITGSQSGEFTLWNGQSFNFEMILQAHDQPIRSMVWSHNENYMVSGDDGGTLKYWQNNMNNVKANKTAHKESIRDLSFCKTDLKFCSCSDDTTVKVWDFTKCVDESSLTGHGWDVKSVDWHPTKSLLVSGGKDQLVKLWDTRSGRELCSLHGHKNIVLSVKWNQNGNWLLTASKDQIIKLYDIRTMKELQSFRGHTKDVTSLAWHPCHEEYFVSGSSDGSICHWIVGHENPQIEIPNAHDNSVWDLAWHPIGYLLCSGSNDHTTKFWCRNRPADNPRDVLMQNQGYNEQGFGRQPDNFQPSEASPIPGAFVPGLTRNEGTIPGIGIAMPFDASSQGDHKQPLPGSMALGAPPLPPGPHPSLLGSGQQQGYQQQQQHQGHPQQMLPMPNMPHHQLPPSSHMPLHPHHLPRPMQMPPHGHMPPPSMPMSHQMPGSMGMQGGMNPQMSQSHFMGAPSGVFQGQPNSGGPQMYPQGRGGFNRPQMIPGYNNPFQQQQQPPLPPGPPPNNNQQHQ
Take B3: the binding result in experiment [3] is given as “no binding (only without cross-linking)”; in experiment [5], “binds”; in experiment [4], “binds”.

Source of the values: article PMC7334503.
